Measured values: the supplement of paper PMC7666118
The list shows a part of the results.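 How the source made its calls: active = dose-dependent thermal stabilisation significant by F-test of dose-response against flat model at 10% FDR; inactive = not significant.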

Sequences of proteins named here, by UniProt entry; tags and fusion partners are left off. A change or cut given only in a name is not applied to a line headed by its entry.
UniProt O00233: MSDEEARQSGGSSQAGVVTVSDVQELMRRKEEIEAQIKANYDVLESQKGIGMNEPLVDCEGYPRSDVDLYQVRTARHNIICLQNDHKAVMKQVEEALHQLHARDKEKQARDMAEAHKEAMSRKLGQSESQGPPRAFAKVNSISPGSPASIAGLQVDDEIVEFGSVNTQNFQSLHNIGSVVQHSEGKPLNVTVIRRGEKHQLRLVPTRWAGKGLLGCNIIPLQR
UniProt Q96LA8, whole entry, looked up: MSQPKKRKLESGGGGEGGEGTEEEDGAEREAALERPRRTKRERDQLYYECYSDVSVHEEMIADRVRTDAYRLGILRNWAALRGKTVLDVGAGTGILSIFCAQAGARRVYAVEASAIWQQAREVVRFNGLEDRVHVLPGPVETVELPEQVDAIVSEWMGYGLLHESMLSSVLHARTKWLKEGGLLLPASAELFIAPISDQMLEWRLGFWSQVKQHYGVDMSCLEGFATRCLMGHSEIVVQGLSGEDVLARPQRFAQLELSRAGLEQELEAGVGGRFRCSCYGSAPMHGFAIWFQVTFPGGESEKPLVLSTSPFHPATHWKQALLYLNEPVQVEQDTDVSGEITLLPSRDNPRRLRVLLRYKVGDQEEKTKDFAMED
UniProt P49792, whole entry: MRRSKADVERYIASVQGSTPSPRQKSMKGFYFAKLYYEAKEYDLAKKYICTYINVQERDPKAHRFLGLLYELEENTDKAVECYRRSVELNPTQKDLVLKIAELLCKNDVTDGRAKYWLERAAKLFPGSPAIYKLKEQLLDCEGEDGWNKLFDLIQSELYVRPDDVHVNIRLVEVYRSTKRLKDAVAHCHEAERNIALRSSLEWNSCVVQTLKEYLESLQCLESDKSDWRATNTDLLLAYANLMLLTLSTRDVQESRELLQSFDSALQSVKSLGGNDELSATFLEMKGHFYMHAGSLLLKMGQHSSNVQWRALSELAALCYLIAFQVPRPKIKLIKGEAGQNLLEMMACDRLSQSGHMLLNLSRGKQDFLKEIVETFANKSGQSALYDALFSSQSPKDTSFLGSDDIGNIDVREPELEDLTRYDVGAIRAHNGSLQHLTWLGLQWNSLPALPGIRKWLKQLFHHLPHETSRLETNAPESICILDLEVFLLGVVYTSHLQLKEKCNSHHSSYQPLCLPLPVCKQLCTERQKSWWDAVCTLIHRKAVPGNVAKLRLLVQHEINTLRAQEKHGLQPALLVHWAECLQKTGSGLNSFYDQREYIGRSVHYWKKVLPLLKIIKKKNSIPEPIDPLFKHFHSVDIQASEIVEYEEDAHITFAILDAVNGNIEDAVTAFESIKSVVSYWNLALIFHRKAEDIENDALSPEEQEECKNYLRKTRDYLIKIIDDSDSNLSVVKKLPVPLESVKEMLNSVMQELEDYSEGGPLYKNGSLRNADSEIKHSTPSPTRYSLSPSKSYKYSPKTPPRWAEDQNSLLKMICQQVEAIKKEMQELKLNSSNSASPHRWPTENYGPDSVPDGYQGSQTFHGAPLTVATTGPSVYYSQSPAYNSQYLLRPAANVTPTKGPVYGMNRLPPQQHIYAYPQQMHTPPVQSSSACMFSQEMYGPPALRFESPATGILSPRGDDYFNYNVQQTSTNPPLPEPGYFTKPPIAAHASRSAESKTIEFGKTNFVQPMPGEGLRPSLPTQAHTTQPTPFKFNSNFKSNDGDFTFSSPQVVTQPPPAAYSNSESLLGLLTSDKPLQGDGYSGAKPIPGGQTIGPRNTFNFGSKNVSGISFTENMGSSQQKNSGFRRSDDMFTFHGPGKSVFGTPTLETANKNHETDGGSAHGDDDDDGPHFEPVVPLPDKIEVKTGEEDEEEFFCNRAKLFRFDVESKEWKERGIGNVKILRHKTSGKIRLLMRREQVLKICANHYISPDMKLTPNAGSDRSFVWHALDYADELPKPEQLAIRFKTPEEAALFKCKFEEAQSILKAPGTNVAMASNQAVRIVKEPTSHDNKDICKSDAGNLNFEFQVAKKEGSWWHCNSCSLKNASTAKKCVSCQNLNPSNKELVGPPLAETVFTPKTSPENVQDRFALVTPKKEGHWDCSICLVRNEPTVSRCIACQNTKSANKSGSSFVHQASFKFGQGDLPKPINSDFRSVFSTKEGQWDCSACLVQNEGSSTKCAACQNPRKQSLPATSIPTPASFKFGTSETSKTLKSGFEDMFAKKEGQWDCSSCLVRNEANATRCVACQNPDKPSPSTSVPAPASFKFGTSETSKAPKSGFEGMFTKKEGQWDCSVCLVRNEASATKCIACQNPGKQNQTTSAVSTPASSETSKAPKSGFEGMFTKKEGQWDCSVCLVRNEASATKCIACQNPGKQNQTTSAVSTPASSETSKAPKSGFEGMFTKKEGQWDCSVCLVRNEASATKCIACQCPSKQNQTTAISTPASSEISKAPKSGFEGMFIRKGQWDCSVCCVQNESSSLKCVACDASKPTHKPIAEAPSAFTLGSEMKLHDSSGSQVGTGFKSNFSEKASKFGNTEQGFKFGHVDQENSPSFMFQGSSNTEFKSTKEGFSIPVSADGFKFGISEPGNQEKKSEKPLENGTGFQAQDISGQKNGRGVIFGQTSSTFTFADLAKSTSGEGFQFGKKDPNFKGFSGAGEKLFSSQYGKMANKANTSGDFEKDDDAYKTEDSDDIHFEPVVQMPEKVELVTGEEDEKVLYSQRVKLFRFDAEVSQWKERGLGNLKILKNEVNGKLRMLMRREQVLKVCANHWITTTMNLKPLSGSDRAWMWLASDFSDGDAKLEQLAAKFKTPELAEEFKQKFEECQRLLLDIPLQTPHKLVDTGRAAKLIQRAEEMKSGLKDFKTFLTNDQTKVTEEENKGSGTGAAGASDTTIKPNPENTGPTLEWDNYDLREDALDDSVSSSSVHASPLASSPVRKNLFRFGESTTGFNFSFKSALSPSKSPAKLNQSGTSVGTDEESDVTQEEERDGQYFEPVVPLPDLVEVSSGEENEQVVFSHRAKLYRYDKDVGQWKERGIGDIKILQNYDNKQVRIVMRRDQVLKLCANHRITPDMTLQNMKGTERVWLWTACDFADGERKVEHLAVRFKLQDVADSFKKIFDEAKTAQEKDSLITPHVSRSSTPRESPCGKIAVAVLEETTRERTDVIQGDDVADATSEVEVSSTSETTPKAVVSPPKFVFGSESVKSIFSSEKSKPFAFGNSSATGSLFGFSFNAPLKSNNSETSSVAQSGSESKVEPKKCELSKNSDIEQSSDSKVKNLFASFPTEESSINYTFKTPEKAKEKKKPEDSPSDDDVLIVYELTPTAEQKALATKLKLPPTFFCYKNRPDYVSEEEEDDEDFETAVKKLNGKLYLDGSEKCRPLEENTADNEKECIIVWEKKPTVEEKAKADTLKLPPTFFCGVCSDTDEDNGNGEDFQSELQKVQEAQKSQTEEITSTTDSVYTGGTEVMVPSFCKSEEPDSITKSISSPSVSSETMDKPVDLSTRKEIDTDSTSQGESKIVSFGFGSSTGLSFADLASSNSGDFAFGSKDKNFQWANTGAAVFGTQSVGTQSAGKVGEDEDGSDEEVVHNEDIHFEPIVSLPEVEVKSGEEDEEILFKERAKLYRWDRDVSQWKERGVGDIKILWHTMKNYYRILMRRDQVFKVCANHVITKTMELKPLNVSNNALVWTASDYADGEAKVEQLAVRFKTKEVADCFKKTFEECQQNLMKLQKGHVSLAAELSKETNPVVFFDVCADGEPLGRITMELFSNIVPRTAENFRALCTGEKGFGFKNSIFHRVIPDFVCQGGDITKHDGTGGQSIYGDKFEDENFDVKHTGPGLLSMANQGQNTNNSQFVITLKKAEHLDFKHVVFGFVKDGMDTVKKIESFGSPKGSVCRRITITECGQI
UniProt Q9Y3T6: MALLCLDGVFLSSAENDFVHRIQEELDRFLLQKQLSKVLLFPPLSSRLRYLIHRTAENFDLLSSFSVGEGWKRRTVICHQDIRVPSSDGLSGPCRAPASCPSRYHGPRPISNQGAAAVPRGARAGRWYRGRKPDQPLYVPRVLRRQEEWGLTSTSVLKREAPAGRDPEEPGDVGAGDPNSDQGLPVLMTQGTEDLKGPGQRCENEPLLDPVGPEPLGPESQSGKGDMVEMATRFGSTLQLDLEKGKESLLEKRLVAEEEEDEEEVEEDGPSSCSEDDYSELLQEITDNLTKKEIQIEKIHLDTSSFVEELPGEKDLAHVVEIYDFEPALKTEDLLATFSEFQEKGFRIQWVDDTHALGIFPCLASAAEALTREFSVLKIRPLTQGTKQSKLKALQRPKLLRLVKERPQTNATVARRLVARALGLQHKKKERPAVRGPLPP
UniProt A6NED2: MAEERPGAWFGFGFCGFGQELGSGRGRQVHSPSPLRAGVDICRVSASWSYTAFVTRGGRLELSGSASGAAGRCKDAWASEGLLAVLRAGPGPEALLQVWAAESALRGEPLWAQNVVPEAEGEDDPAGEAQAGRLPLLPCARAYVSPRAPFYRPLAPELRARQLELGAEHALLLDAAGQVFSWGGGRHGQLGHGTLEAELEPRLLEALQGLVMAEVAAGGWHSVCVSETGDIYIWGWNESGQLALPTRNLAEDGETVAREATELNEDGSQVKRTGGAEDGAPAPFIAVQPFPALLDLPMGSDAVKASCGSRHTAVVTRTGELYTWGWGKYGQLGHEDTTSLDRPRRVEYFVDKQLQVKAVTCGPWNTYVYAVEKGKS
UniProt Q13332: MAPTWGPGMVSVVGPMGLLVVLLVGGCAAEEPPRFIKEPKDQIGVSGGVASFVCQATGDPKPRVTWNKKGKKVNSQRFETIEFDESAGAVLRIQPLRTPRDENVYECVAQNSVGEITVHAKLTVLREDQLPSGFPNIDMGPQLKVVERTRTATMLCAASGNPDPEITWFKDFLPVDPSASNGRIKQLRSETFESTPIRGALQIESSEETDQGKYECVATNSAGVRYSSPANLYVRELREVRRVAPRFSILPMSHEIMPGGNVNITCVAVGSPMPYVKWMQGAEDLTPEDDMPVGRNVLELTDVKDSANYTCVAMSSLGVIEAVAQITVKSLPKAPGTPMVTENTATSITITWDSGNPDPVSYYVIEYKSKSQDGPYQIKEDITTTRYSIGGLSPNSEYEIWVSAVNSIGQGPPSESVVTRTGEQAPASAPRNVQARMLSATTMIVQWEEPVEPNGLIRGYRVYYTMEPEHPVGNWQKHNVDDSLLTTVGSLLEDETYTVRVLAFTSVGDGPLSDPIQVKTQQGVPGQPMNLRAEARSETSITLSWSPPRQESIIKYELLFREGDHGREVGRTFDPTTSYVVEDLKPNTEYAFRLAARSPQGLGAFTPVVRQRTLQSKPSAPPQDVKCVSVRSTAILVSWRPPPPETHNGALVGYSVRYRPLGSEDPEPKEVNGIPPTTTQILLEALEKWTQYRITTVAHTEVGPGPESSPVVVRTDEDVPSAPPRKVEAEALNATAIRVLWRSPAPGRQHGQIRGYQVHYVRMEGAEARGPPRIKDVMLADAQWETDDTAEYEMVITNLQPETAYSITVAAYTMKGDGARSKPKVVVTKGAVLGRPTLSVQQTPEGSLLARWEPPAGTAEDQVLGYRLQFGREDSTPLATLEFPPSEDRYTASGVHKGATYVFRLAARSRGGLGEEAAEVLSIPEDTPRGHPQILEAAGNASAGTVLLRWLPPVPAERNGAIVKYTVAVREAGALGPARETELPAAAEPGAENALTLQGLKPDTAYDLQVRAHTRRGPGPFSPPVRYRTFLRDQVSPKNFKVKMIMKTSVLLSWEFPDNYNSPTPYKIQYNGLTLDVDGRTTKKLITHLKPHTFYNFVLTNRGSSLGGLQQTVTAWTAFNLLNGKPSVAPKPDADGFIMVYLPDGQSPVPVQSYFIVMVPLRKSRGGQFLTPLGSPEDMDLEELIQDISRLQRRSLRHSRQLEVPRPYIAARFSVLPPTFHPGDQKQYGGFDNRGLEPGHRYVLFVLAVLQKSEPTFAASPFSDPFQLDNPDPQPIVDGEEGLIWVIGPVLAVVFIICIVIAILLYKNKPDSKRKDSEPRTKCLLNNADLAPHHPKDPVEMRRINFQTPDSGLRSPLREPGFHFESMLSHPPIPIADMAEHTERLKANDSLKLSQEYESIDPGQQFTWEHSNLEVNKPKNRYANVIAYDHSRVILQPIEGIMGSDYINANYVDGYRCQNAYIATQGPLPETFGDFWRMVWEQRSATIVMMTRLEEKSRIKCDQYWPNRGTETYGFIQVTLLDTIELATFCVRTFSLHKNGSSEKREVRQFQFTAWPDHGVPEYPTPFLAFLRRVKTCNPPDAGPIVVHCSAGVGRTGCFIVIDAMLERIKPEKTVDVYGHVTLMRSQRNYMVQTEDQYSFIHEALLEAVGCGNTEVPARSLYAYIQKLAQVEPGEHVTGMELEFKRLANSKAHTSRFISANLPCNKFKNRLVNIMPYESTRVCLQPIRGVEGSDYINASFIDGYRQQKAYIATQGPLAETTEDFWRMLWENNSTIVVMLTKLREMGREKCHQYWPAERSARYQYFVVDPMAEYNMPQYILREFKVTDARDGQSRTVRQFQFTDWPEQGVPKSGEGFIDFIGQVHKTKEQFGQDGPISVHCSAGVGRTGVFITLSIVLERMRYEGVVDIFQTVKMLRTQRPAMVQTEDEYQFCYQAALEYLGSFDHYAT

Compound: Nc1nc2c(ncn2[C@@H]2O[C@H](COP(=O)(O)OP(=O)(O)OP(=O)(O)O)[C@@H](O)[C@H]2O)c(=O)[nH]1
Assay: dose-dependent thermal stabilisation call (2D-TPP, DLPTP, 10% FDR) (binary (1 = stabilised)); higher = stabilised by the compound
Conditions: system: Jurkat gel-filtered lysate; concentration range 1-500 µM

dose-dependent thermal stabilisation call, inactive:
PSMD13 (UniProt Q9UNM6) 0, PSMA1 (UniProt P25786) 0, PUDP (UniProt Q08623) 0, PSME2 (UniProt Q9UL46) 0, RABL6 (UniProt Q3YEC7) 0, PSMD9 (UniProt O00233) 0, PWP1 (UniProt Q13610) 0, RBBP8 (UniProt Q99708) 0, RCOR1 (UniProt Q9UKL0) 0, PSMG2 (UniProt Q969U7) 0, RAD23A (UniProt P54725) 0, PRR12 (UniProt Q9ULL5) 0, PRMT6 (UniProt Q96LA8) 0, RANBP2 (UniProt P49792) 0, R3HCC1 (UniProt Q9Y3T6) 0, PTPA (UniProt Q15257) 0, RBSN (UniProt Q9H1K0) 0, PRMT1 (UniProt Q99873) 0, PSMA2 (UniProt P25787) 0, RAI1 (UniProt Q7Z5J4) 0, RC3H1 (UniProt Q5TC82) 0, RCCD1 (UniProt A6NED2) 0, PYM1 (UniProt Q9BRP8) 0, PRPF39 (UniProt Q86UA1) 0, PTPRS (UniProt Q13332) 0, PSMA5 (UniProt P28066) 0

dose-dependent thermal stabilisation call, active:
PRKAR2B (UniProt P31323) 1, RAB27A (UniProt P51159) 1, RAC2 (UniProt P15153) 1, PRIM2 (UniProt P49643) 1, PUS3 (UniProt Q9BZE2) 1, PRMT7 (UniProt Q9NVM4) 1, RAB1B (UniProt Q9H0U4) 1, RAB8A (UniProt P61006) 1, RAB5C (UniProt P51148) 1, PTBP1 (UniProt P26599) 1
